Test results taken from paper PMC5906478.
No constants are given. Whether binding was seen depends on the method and setting. For some of these results: Binding seen in cells or lysates may run through a third protein. Some results given as binding are weak or reduced against the parent protein; the word gives no strength. Blank lines part the entries; values can stand above or below the substance they belong to.

By UniProt entry, the sequences of proteins in these tests, tags left out. Where a name states a change or a piece, a line headed by the entry shows the natural chain unless it says otherwise. Residues count along the entry.
UniProt Q07021, residues 74-282: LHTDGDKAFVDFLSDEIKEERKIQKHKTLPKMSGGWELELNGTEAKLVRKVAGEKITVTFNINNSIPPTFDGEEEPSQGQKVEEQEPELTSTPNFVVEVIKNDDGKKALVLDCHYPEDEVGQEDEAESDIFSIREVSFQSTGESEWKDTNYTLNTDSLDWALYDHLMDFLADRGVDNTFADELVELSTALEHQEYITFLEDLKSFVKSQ
UniProt P67809: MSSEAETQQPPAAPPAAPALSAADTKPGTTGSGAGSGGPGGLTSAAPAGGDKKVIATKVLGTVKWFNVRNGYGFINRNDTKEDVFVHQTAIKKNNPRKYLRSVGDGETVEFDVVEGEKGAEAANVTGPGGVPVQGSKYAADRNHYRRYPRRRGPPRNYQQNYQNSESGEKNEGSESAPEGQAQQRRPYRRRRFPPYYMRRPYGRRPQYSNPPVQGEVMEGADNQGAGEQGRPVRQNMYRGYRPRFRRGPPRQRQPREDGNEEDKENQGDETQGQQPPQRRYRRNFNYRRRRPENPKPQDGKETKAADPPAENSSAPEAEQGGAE
UniProt Q92973: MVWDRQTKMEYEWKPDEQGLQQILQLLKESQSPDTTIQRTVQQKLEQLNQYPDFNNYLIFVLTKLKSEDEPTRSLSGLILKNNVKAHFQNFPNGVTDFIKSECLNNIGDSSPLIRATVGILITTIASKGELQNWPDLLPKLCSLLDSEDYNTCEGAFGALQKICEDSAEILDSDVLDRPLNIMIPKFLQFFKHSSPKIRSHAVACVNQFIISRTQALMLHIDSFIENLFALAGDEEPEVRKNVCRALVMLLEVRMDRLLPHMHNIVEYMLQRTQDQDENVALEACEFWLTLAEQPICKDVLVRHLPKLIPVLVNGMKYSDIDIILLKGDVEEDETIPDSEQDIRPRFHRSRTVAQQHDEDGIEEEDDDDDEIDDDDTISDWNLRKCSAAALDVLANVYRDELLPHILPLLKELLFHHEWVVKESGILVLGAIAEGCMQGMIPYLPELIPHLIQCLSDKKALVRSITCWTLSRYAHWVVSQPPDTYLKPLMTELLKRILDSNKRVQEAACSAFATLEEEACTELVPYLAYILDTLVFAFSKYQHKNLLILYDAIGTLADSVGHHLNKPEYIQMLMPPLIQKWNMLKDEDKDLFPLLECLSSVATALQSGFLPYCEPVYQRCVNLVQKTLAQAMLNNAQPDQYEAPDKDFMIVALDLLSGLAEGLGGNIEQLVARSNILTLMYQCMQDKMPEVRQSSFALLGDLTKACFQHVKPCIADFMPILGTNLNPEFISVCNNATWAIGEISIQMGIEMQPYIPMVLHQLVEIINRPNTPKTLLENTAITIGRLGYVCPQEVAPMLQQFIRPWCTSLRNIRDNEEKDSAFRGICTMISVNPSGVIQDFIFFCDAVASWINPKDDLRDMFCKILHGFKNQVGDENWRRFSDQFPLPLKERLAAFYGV

Legend:
GST-YBAP1 [1] = target: GST-YBAP1 (UniProt Q07021); experiment: pull-down; FLAG-tagged YB-1 and fragments translated in wheat germ extract, incubated with 4 μg GST or GST-YBAP1 in 450 μl buffer E (50 mM Tris-HCl pH 7.5, 150 mM NaCl, 20 mM EDTA, 0.5% Nonidet P-40), 15 min 30 °C then 20 min on ice; glutathione-Sepharose 1 h 4 °C; anti-FLAG immunoblot; only the target purified
[2] = target: YB-1 (endogenous, HeLa cells) (human (endogenous in HeLa)) (UniProt P67809); experiment: co-IP; HeLa S3 cell lysates in buffer A (50 mM Tris-HCl pH 7.5, 150 mM NaCl, 5 mM MgCl2, 0.5% Nonidet P-40), treated with or without RNase A; anti-YB-1 IgG or control rabbit IgG on protein G-Sepharose, 1 h at 4 °C; eluted with antigen peptide; immunoblot
[3] = target: FLAG-transportin 1 (recombinant protein) (UniProt Q92973); experiment: co-IP; recombinant YB-1-His and FLAG-transportin 1 with increasing amounts of GST-YBAP1 in 200 μl buffer D (buffer A with 1% BSA), on ice 20 min; anti-FLAG M2 affinity gel 1 h 4 °C; eluted with 3xFLAG peptide; immunoblot; both purified
GST-YBAP1 [4] = target: GST-YBAP1 (UniProt Q07021); experiment: pull-down; recombinant YB-1-His with GST-YBAP1 or GST and increasing amounts of FLAG-transportin 1 in buffer D (buffer A with 1% BSA), on ice 20 min; glutathione-Sepharose 1 h 4 °C; eluted with 20 mM glutathione; immunoblot; both purified
[5] = target: FLAG-transportin 1 expressed in HeLa cells (pCMV-3xFLAG-TRN1) (UniProt Q92973); experiment: co-IP; HeLa cells transfected with pCMV-3xFLAG-TRN1 or empty vector; lysis in buffer C with 0.5% SDS, sonicated; anti-FLAG M2 affinity gel 2 h at 4 °C; eluted with 3xFLAG peptide; immunoblot for YB-1 and FLAG

Substance: YB-1 C2 region (first two alternating A/B regions), C-terminally FLAG-tagged, in vitro translated (from UniProt P67809 129-229) (domain or fragment)
binding (GST-YBAP1 [1]): binds

Substance: YB-1 cold shock domain (CSD), C-terminally FLAG-tagged, in vitro translated (from UniProt P67809 61-125) (domain or fragment)
binding (GST-YBAP1 [1]): no binding (tested: 4 μg of GST-YBAP1 in 450 μl)

Substance: YB-1 (endogenous, HeLa cells) (from UniProt P67809 1-324)
binding [5]: binds

More lines, now with the values ahead:

binding (GST-YBAP1 [1]): binds
Substance: Full-length YB-1 (wild-type, WT), C-terminally FLAG-tagged, in vitro translated (from UniProt P67809 1-324)

binding [2]: binds
Substance: Y-box protein-associated acidic protein YBAP1/C1QBP (endogenous, HeLa cells) (from UniProt Q07021 74-282)

binding [3]: binds | binding (GST-YBAP1 [4]): binds
Substance: YB-1-His (from UniProt P67809 1-324)
